No constants are given. Whether binding was seen depends on the method and setting. Some binding calls cover weakened binding; strength is not graded here.
What was measured:
[1] = molecular target: FLAG-optineurin fusion protein (UniProt Q96CV9); experiment: native gel or EMSA; as a3 but in RPE cells; data not shown
[2] = molecular target: FLAG-optineurin fusion protein (UniProt Q96CV9); experiment: native gel or EMSA; RGC5 cells co-transfected with pTarget-FLAG-OPTN and pRab8Q67L-EGFP, pMyoVI-EGFP and/or pTfR-EGFP in various combinations; 20 ug lysate on native blue gel; Western blot with anti-FLAG

Sequences of proteins named here, by UniProt entry; tags and fusion partners are left off.
UniProt Q96CV9: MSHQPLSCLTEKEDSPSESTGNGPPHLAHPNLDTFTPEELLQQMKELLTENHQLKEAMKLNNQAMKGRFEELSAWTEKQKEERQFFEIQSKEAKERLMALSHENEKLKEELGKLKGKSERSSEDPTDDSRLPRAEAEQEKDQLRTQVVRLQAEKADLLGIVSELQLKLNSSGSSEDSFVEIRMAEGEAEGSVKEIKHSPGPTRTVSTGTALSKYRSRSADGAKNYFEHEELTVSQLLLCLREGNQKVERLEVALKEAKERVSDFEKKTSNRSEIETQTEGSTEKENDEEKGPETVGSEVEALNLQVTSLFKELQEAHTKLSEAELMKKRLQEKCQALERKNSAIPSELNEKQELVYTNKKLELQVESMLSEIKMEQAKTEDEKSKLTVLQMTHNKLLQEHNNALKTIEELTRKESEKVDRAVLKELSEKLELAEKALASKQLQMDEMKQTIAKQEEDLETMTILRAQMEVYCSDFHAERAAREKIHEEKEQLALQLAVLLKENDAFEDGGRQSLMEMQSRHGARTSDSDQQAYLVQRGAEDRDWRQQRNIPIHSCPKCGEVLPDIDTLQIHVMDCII
UniProt Q9UM54: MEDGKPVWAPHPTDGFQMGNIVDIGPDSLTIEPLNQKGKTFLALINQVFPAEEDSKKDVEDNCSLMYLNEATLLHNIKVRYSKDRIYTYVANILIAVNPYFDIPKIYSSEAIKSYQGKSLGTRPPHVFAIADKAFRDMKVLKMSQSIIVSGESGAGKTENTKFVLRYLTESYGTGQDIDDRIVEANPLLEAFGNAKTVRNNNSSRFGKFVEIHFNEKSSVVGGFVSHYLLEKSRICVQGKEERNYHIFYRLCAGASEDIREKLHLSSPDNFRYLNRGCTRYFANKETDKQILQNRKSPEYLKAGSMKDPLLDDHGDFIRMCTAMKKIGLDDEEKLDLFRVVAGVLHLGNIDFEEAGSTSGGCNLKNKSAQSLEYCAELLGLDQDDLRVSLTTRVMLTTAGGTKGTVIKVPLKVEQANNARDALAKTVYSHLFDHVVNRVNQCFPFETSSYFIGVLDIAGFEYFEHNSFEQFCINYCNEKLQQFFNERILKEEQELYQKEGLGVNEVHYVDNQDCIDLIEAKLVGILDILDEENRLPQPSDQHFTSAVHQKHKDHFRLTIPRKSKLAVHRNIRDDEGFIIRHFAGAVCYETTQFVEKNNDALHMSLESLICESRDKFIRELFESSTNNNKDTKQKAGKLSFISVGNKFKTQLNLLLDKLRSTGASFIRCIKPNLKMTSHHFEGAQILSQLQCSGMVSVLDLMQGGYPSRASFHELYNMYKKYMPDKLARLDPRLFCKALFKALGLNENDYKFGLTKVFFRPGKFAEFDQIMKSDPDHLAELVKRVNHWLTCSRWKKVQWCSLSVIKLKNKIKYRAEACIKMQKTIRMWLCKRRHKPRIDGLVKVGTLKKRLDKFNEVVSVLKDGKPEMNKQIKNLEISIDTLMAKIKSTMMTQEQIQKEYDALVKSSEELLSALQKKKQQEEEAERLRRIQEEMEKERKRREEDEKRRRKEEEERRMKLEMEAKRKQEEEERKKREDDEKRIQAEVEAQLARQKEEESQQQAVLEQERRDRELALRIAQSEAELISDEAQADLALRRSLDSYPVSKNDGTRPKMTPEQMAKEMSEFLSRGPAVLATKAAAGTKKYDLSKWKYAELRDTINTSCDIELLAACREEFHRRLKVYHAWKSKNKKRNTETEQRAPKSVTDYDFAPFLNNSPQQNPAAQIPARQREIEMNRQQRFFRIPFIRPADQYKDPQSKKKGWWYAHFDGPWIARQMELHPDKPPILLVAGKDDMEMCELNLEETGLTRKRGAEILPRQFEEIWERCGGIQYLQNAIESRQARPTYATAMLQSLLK

## Human myosin VI full length fused to EGFP (from UniProt Q9UM54 1-1294)
[1]
  binding: binds
[2]
  binding: binds
